Measurements taken from patent EP0326418A1, “GRF analogs” (THE UPJOHN COMPANY, priority 1988, dated 1989).
At least one peptide structure holds a part that was inferred or is arguable (an end, a ring closure or a residue). Where a SMILES comes first, the peptide text is derived from it. [ ]: non-standard residue; d: D form. The star is where a group is joined. Desaminotyrosyl = O=C(CCc1ccc(O)cc1)*; Cya = N[C@@H](CS(=O)(=O)O)C(=O)O

System: meal-fed Holstein steers
Test: serum growth hormone (GH) response after intravenous injection in steers (Procedure B)
Format: in vivo
Settings: for relative growth hormone areas: in comparison to the standard bGRF(1-44)NH₂ (Area 100%), procedure B, second study; for area under the GH response curve: in comparison to bGRF(1-44)NH₂ (100%), first study
From the text: The synthetic peptides prepared in Examples 1, 2 and 3 (Compounds 1, 2 and 3 respectively), bGRF(1-44)NH2 and […] bGRF(1-32)NH2 were also given to meal-fed Holstein steers by intravenous injection (Procedure B) and the serum growth hormone (GH) response evaluated. […] In comparison to bGRF(1-44)NH2 (100%), the area under the GH response curve was 122% for […] bGRF(1-32)NH2, 100% for Compound #1, 106% for Compound #2, and 111% for Compound #3. Holstein steers (265 +/- 5kg) were housed in individual stalls 18-20°C) and exposed to 16h light:8h darkness (lights on at 0400h). Steers are meal-fed once daily at 1000h and trained to consume their total daily feed intake in 2 h. The diet consisted of rolled corn plus a mineral/vitamin premix and alfalfa hay cubes fed at 160% maintenance energy requirements on a bodyweight basis. Steers gained approximately 0.75 kg/h/d. In a 5 x […] Latin Square design 10 steers were assigned randomly to receive the following treatments. (a) bGRF(1-44)NH2, (b) […] bGRF(1-32)NH2, (c) Compound #3, (d) Compound #1, and (e) Compound #2. The GRFs were dissolves in saline (10μg/ml) and administered at 3nM/100 kg bodyweight as single iv injection at 0800 h, 2 h between feeding. A cannula was inserted into a jugular vein at least one day before treatment. Blood (6 ml) was collected at 20-min interval from 40 min before until 120 min after injection with additional samples collected at 5, 10 and 15 min after injection. Serum obtained from the samples was assayed from GH concentration. The number of steers responding to injection fo the various GRFs tested (P=0.42) ranged from 9 of 10 to 10 of 10 depending on the treatment. Using procedure B, compounds were tested for growth hormone release in steers. In comparison to the standard bGRF(1-44)NH2 (Area 100%), the test compounds gave the following relative growth hormone areas: Compound 4, 233%; compound 5, 140%; compound 6, 160%; compound 7, 126%; compound 8, 307%; compound 9, 260%; and compound 11, 173%.

[1] = 3nM/100 kg bodyweight, single iv injection

CC[C@H](C)[C@H](NC(=O)[C@H](C)NC(=O)[C@H](CS(=O)(=O)O)NC(=O)[C@@H](C)NC(=O)CCc1ccc(O)cc1)C(=O)N[C@@H](Cc1ccccc1)C(=O)N[C@H](C(=O)N[C@@H](CC(N)=O)C(=O)N[C@@H](CO)C(=O)N[C@@H](Cc1ccc(O)cc1)C(=O)N[C@@H](CCCNC(=N)N)C(=O)N[C@@H](CCCCN)C(=O)N[C@H](C(=O)N[C@@H](CC(C)C)C(=O)NCC(=O)N[C@@H](CCC(N)=O)C(=O)N[C@@H](CC(C)C)C(=O)N[C@@H](CO)C(=O)N[C@@H](C)C(=O)N[C@@H](CCCNC(=N)N)C(=O)N[C@@H](CCCCN)C(=O)N[C@@H](CC(C)C)C(=O)N[C@@H](CC(C)C)C(=O)N[C@@H](CCC(N)=O)C(=O)N[C@@H](CC(=O)O)C(=O)N[C@H](C(=O)N[C@@H](CC(C)C)C(=O)N[C@@H](CC(N)=O)C(=O)N[C@@H](CCCNC(=N)N)C(=O)N[C@@H](CCC(N)=O)C(=O)N[C@@H](CCC(N)=O)C(=O)NCC(N)=O)[C@@H](C)CC)C(C)C)[C@@H](C)O [Compound 6, Desamino-Tyr¹, D-Ala²,, Cya³, Leu²⁷-bGRF(1-32)NH₂] (Desaminotyrosyl-[dA][Cya]AIFTNSYRKVLGQLSARKLLQDILNRQQG-NH2)
relative growth hormone areas: 160%

CC[C@H](C)[C@H](NC(=O)[C@H](C)NC(=O)[C@H](CC(=O)O)NC(=O)[C@H](C)NC(=O)[C@@H](N)Cc1ccc(O)cc1)C(=O)N[C@@H](Cc1ccccc1)C(=O)N[C@H](C(=O)N[C@@H](CC(N)=O)C(=O)N[C@@H](CO)C(=O)N[C@@H](Cc1ccc(O)cc1)C(=O)N[C@@H](CCCNC(=N)N)C(=O)N[C@@H](CCCCN)C(=O)N[C@H](C(=O)N[C@@H](CC(C)C)C(=O)NCC(=O)N[C@@H](CCC(N)=O)C(=O)N[C@@H](CC(C)C)C(=O)N[C@@H](CO)C(=O)N[C@@H](C)C(=O)N[C@@H](CCCNC(=N)N)C(=O)N[C@@H](CCCCN)C(=O)N[C@@H](CC(C)C)C(=O)N[C@@H](CC(C)C)C(=O)N[C@@H](CCC(N)=O)C(=O)N[C@@H](CC(=O)O)C(=O)N[C@H](C(=O)N[C@@H](CCSC)C(=O)N[C@@H](CC(N)=O)C(=O)N[C@@H](CCCNC(=N)N)C(=O)N[C@@H](CCC(N)=O)C(=O)N[C@@H](CCC(N)=O)C(=O)NCC(=O)N[C@@H](CCC(=O)O)C(=O)N[C@@H](CCCNC(=N)N)C(=O)N[C@@H](CC(N)=O)C(=O)N[C@@H](CCC(N)=O)C(=O)N[C@@H](CCC(=O)O)C(=O)N[C@@H](CCC(N)=O)C(=O)NCC(=O)N[C@@H](C)C(=O)N[C@@H](CCCCN)C(=O)N[C@H](C(=O)N[C@@H](CCCNC(=N)N)C(=O)N[C@@H](CC(C)C)C(N)=O)C(C)C)[C@@H](C)CC)C(C)C)[C@@H](C)O [bGRF(1-44)NH₂, reference compound]
area under the GH response curve [1]: 100%
relative growth hormone areas: 100%

CC[C@H](C)[C@H](NC(=O)[C@H](C)NC(=O)[C@H](CS(=O)(=O)O)NC(=O)[C@H](C)NC(=O)CCc1ccc(O)cc1)C(=O)N[C@@H](Cc1ccccc1)C(=O)N[C@H](C(=O)N[C@@H](CC(N)=O)C(=O)N[C@@H](CO)C(=O)N[C@@H](Cc1ccc(O)cc1)C(=O)N[C@@H](CCCNC(=N)N)C(=O)N[C@@H](CCCCN)C(=O)N[C@H](C(=O)N[C@@H](CC(C)C)C(=O)NCC(=O)N[C@@H](CCC(N)=O)C(=O)N[C@@H](CC(C)C)C(=O)N[C@@H](CO)C(=O)N[C@@H](C)C(=O)N[C@@H](CCCNC(=N)N)C(=O)N[C@@H](CCCCN)C(=O)N[C@@H](CC(C)C)C(=O)N[C@@H](CC(C)C)C(=O)N[C@@H](CCC(N)=O)C(=O)N[C@@H](CC(=O)O)C(=O)N[C@H](C(=O)N[C@@H](CC(C)C)C(=O)N[C@@H](CC(N)=O)C(=O)N[C@@H](CCCNC(=N)N)C(=O)N[C@@H](CCC(N)=O)C(=O)N[C@@H](CCC(N)=O)C(=O)NCC(N)=O)[C@@H](C)CC)C(C)C)[C@@H](C)O [Compound 5, Desamino-Tyr¹, Cya³, Leu²⁷-bGRF(1-32)NH₂] (Desaminotyrosyl-A[Cya]AIFTNSYRKVLGQLSARKLLQDILNRQQG-NH2)
relative growth hormone areas: 140%

CC[C@H](C)[C@H](NC(=O)[C@H](C)NC(=O)[C@H](CS(=O)(=O)O)NC(=O)[C@H](C)NC(=O)[C@@H](N)Cc1ccc(O)cc1)C(=O)N[C@@H](Cc1ccccc1)C(=O)N[C@H](C(=O)N[C@@H](CC(N)=O)C(=O)N[C@@H](CO)C(=O)N[C@@H](Cc1ccc(O)cc1)C(=O)N[C@@H](CCCNC(=N)N)C(=O)N[C@@H](CCCCN)C(=O)N[C@H](C(=O)N[C@@H](CC(C)C)C(=O)NCC(=O)N[C@@H](CCC(N)=O)C(=O)N[C@@H](CC(C)C)C(=O)N[C@@H](CO)C(=O)N[C@@H](C)C(=O)N[C@@H](CCCNC(=N)N)C(=O)N[C@@H](CCCCN)C(=O)N[C@@H](CC(C)C)C(=O)N[C@@H](CC(C)C)C(=O)N[C@@H](CCC(N)=O)C(=O)N[C@@H](CS(=O)(=O)O)C(=O)N[C@H](C(=O)N[C@@H](CC(C)C)C(=O)N[C@@H](CC(N)=O)C(=O)N[C@@H](CCCNC(=N)N)C(=O)N[C@@H](CCC(N)=O)C(=O)N[C@@H](CCC(N)=O)C(=O)NCC(N)=O)[C@@H](C)CC)C(C)C)[C@@H](C)O [Compound 2, Cya^3,25, Leu²⁷bGRF(1-32)NH₂] (H-YA[Cya]AIFTNSYRKVLGQLSARKLLQ[Cya]ILNRQQG-NH2)
serum growth hormone (GH) response, difference from Leu²⁷ bGRF(1-32)NH₂ (3nM/100 kg bodyweight, single iv injection, compared with Leu²⁷ bGRF(1-32)NH₂): No significant differences
area under the GH response curve [1]: 106%
